Some entries share one result that the patent states for a list of compounds. For at least one compound, name, drawing or mass did not settle the structure.
Tested on: Gram-positive and Gram-negative bacteria
Assay: Broth microdilution assay, whole panel
Assay type: cell-based
Details: for MIC, Gram-negative bacteria (as low as): lowest MIC for Gram-negative bacteria; for MIC, Gram-positive bacteria (as low as): lowest MIC for Gram-positive bacteria
Protocol: From the frozen stock (−80° C.), bacteria were inoculated into brain-hear infusion (BHI) agar (Becton Dickinson, Franklin Lakes, N.J.) and propagated under aerobic conditions at 37° C. for 24 h. After the incubation, one colony of each bacterial strain was transferred to BHI broth (Becton Dickinson, Franklin Lakes, N.J.) and sub-cultured at least twice into BHI before being used in experiments.
The minimal inhibitory concentration (MIC) of CAms were identified using a broth microdilution assay modified from previous studies. Briefly, the stock solutions of CAMs were first prepared by dissolving in double-distilled water (ddH2O) and then diluted in BHI broth at pre-determined concentrations. Further serial 2-fold dilutions were performed in a 96-well microplate (Becton Dickinson, Franklin Lakes, N.J.) with BHI broth. The inoculum concentration was adjusted to 5×10^6 CFU/mL with ultraviolet-visible (UV-vis) spectroscopy at 600 nm. An equal volume (100 μL) of bacterial suspension was added to each microplate well with a final volume of 200 μL. Plates were incubated at 37° C. for 24 h under aerobic conditions. The lowest CAm concentration that yielded no visible growth was recorded as the MIC. Cetyltrimethylammonium bromide (CTAB), a cationic amphiphile, served as a positive control that could mimic the proposed bactericidal mechanism of the newly synthesized tartaric acid-based compounds.
CAms were evaluated against five selected pathogenic microorganisms, including Gram-positive bacteria (i.e., S. aureus and L. monocytogenes) and Gram-negative bacteria (i.e., E. coli, S. typhimurium, and P. aeruginosa), using a turbidity-based microdilution method. MICs were taken as the lowest concentrations that inhibited the visible bacterial growth. […] The higher MIC values for the Gram-negative bacteria could be attributed to the presence of an additional lipopolysaccharide layer, which forms a hydrophilic barrier that could prevent penetration of the highly hydrophobic CAms.

CCCCCCCCCCOC(C(=O)NCCN)C(OCCCCCCCCCC)C(=O)NCCN.Cl.Cl (stereo not shown) [5b]
MIC, Gram-negative bacteria (as low as): ≥ 3.9 µg/mL
MIC, Gram-positive bacteria (as low as): ≥ 0.95 µg/mL

CCCCCCCCCC(=O)OC(C(=O)NCCN)C(OC(=O)CCCCCCCCC)C(=O)NCCN.Cl.Cl (stereo not shown) [8b]
MIC, Gram-negative bacteria (as low as): ≥ 3.9 µg/mL
MIC, Gram-positive bacteria (as low as): ≥ 0.95 µg/mL

— patent publication US10759740B2, “Antibacterial agents” (Rutgers, The State University of New Jersey, priority 2016, dated 2020)
